Reference: the supplement of paper PMC12823440, “Inhibitors supercharge kinase turnover through native proteolytic circuits” (Nature, 2025)
Where a name gives a salt, the structure may show the parent alone. The list shows a part of the results. Hit calls seldom repeat between salt and free forms of one compound.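 Kinases, fused to nanoluciferase, were expressed in K562 cells; luminescence was measured every 4 h from 2 to 18 h as percent of control (DMSO = 100%, positive control = 0%). A time point is decreased if signal falls significantly (2 sigma). Hits were called by the authors by a rule that is not shown; the count of time points alone does not decide it.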

Sequences of proteins named here, by UniProt entry; tags and fusion partners are left off. A change or cut given only in a name is not applied to a line headed by its entry.
UniProt P00519, whole entry: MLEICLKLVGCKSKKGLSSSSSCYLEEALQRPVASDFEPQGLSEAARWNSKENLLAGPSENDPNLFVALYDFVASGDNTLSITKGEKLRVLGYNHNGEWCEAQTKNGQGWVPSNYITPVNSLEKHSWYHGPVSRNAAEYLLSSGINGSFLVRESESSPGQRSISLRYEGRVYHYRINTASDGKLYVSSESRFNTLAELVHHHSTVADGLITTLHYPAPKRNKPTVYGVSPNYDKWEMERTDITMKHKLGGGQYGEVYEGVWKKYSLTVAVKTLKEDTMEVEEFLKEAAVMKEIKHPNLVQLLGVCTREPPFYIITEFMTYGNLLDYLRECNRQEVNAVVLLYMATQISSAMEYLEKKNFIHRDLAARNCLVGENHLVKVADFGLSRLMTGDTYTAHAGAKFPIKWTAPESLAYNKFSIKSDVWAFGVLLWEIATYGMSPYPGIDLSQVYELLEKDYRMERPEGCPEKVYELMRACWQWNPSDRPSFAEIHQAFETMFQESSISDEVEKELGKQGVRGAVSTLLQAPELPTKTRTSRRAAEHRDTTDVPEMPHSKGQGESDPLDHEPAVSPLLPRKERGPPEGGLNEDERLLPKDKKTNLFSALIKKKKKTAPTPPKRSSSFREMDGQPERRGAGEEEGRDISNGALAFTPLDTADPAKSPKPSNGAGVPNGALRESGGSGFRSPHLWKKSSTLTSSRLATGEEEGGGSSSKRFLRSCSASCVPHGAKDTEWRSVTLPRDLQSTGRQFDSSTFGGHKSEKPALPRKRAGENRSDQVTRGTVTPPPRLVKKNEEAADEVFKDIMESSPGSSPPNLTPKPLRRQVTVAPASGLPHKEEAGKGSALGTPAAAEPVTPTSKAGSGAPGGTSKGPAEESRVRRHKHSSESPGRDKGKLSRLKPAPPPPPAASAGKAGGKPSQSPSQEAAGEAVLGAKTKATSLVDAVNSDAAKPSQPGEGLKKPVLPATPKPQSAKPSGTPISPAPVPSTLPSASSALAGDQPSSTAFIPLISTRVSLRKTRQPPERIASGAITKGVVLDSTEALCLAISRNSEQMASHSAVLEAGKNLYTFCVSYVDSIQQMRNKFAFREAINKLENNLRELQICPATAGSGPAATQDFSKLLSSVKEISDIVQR
UniProt P31749: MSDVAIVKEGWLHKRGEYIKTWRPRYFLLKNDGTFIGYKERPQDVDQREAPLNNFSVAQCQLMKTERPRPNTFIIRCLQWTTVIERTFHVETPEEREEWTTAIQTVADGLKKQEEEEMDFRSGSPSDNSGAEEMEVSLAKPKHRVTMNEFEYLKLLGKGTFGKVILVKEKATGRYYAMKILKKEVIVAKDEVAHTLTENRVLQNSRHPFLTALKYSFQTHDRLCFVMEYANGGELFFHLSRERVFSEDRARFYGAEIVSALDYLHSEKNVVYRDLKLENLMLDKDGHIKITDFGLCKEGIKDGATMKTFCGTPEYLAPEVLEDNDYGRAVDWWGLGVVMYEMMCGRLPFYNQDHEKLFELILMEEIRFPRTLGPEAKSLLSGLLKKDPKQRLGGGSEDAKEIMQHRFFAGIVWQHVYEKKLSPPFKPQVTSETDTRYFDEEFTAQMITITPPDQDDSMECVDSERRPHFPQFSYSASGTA
UniProt Q9UM73: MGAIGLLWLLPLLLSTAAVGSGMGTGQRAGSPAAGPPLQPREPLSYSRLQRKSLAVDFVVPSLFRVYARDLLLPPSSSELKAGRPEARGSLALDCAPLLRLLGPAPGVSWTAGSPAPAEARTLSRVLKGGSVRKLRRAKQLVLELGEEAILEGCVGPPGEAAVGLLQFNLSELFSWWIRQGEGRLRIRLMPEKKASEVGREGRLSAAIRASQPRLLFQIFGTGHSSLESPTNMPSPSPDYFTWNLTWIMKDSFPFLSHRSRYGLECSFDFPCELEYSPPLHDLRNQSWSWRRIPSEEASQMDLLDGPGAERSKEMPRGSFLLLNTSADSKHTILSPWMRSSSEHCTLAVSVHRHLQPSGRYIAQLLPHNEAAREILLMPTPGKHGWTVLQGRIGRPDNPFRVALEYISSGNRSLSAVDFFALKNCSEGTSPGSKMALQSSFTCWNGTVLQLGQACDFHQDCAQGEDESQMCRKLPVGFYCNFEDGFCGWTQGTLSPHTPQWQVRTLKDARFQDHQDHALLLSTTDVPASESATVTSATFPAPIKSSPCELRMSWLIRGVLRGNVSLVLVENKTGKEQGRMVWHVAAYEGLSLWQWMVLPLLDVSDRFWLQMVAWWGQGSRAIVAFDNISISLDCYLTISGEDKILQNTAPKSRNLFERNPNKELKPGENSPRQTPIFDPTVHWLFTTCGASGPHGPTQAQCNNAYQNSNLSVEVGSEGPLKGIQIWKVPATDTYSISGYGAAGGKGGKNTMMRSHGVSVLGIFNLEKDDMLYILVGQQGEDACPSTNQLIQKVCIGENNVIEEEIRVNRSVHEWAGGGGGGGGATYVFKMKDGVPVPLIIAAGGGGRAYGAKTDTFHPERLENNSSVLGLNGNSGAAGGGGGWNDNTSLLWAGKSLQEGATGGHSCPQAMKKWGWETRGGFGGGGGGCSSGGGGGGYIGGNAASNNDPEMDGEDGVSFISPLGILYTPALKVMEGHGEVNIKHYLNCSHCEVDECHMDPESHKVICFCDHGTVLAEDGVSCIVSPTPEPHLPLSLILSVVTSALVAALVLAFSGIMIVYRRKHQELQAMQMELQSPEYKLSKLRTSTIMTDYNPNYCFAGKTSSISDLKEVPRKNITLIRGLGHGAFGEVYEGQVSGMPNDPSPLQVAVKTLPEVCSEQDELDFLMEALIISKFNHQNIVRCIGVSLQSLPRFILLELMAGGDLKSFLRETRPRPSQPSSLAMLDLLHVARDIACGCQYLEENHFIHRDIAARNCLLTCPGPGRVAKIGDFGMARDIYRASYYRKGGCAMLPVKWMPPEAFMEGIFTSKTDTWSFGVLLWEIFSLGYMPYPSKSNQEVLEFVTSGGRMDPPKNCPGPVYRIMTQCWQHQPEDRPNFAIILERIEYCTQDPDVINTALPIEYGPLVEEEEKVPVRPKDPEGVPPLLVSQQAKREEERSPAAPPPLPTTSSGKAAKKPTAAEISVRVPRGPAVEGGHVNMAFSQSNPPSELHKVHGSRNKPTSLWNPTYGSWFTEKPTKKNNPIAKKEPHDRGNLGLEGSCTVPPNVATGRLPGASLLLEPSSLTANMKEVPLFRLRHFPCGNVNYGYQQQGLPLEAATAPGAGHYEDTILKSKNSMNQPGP
UniProt P10398: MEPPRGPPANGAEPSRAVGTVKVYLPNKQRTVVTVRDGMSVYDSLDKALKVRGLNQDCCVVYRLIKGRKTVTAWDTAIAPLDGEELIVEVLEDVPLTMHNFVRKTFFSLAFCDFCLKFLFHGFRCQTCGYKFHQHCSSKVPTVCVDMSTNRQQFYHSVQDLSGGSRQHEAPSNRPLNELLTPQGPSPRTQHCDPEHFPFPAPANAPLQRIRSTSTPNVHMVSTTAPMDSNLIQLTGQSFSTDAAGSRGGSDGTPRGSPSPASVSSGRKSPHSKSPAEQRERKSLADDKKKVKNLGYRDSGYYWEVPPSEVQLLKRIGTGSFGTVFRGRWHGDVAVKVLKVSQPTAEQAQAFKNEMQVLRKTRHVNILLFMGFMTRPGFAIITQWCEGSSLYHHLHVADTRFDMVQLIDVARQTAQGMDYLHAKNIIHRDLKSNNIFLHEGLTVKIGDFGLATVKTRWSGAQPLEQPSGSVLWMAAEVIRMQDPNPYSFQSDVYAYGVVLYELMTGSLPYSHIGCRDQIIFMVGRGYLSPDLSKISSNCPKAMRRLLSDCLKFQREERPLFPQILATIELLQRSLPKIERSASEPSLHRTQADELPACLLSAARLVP
UniProt O14965: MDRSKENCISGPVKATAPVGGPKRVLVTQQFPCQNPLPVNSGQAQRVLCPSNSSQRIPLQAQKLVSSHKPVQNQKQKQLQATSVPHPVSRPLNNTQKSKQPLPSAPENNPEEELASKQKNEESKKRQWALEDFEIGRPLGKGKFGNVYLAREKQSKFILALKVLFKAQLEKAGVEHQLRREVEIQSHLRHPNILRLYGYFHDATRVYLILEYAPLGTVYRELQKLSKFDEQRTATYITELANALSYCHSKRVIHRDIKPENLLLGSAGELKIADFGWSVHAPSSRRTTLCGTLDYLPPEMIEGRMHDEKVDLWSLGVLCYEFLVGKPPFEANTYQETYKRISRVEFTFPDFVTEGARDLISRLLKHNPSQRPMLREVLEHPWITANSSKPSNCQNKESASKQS
UniProt Q96GD4, whole entry: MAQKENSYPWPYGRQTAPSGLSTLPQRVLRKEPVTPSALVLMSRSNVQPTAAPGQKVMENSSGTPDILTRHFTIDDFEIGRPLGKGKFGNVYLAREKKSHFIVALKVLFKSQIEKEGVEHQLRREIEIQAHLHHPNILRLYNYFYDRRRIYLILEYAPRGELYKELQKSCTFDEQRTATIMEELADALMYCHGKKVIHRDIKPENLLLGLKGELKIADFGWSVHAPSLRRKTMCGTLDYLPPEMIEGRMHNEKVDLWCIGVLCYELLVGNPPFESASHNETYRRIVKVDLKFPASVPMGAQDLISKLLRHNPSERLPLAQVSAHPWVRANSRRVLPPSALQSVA
UniProt Q9UQB9: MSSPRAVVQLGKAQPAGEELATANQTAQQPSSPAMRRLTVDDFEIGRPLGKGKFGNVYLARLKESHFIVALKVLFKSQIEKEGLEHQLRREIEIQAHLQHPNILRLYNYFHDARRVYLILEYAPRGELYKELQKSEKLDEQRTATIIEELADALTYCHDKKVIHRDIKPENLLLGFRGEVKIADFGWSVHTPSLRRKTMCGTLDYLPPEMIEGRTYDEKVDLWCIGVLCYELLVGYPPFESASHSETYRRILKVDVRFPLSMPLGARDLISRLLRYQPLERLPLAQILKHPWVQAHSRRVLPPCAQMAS
UniProt P51813: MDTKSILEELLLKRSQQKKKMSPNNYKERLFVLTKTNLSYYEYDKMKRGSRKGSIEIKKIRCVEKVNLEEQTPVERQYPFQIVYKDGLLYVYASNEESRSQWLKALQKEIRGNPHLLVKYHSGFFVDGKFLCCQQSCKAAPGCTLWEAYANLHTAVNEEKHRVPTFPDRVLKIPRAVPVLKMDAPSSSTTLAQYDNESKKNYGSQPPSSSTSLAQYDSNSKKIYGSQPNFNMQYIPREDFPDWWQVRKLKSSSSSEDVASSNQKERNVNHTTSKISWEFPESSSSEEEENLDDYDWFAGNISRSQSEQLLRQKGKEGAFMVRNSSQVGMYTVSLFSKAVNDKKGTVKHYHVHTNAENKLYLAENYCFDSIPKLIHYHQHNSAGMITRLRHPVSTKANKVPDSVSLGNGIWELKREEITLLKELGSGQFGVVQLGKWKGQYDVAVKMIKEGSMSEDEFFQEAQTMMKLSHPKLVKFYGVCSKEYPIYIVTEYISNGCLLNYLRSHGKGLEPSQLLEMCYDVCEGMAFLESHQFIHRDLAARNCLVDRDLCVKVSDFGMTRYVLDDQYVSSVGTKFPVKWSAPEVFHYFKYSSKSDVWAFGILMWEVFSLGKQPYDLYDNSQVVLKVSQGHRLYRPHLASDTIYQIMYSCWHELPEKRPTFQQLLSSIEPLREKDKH
UniProt P15056, whole entry, looked up: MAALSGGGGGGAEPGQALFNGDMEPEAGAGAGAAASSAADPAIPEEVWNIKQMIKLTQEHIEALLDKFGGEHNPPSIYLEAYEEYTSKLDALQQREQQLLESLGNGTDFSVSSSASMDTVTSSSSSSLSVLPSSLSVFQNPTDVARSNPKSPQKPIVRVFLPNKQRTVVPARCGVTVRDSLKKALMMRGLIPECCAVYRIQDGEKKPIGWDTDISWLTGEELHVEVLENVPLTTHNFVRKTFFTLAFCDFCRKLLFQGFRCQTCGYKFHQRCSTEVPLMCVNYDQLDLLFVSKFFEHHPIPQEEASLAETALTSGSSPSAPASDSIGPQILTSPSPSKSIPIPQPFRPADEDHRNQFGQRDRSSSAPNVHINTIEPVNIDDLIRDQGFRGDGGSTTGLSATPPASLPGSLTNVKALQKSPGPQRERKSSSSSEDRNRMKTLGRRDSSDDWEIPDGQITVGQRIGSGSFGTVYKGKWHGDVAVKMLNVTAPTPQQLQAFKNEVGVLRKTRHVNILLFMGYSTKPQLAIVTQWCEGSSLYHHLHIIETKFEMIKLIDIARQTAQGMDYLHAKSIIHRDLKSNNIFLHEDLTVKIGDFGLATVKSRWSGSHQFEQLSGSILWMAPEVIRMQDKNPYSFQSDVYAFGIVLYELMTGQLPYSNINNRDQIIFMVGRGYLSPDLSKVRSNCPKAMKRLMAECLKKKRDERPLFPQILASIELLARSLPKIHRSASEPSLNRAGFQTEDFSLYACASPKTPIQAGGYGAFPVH

Legend:
Experiment in all cases: kinase-Nluc reporter destabilization hit call (1 = scored as downregulated) (binary); higher = compound decreases kinase abundance
Conditions in all cases: K562; 2-18 h
ABL1 = ABL1 (UniProt P00519)
AKT1 = AKT1 (UniProt P31749)
ALK = ALK (UniProt Q9UM73)
ARAF = ARAF (UniProt P10398)
AURKA = AURKA (UniProt O14965)
AURKB = AURKB (UniProt Q96GD4)
AURKC = AURKC (UniProt Q9UQB9)
BLK = BLK (UniProt P51451)
BMX = BMX (UniProt P51813)
BRAF = BRAF (UniProt P15056)

Measured: kinase-Nluc reporter destabilization hit call

C[C@@H]1C[C@H]2O[C@@]3(O[C@@H]2C(C)(C)O)[C@H](O)[C@@]2(C)[C@@H]4CC[C@H]5C(C)(C)[C@@H](O[C@@H]6OC[C@H](O)[C@H](O)[C@H]6O)CC[C@@]56C[C@@]46CC[C@]2(C)[C@@H]13 [Cimiracemoside C] (10 µM)
inactive: ABL1 = 0 | AKT1 = 0 | ALK 0 | ARAF 0 | AURKA 0 | AURKB 0 | AURKC 0 | BLK 0 | BMX 0 | BRAF 0

CC(C)C[C@H](NC(=O)[C@H](CCCCN)NC(=O)[C@H](CO)NC(=O)[C@@H](N)CC(C)C)C(N)=O [LSKL, Inhibitor of Thrombospondin (TSP-1) (TFA)] (10 µM)
inactive: ABL1 = 0 | AKT1 = 0 | ALK 0 | ARAF 0 | AURKA 0 | AURKB 0 | AURKC 0 | BLK 0 | BMX 0 | BRAF 0

O=c1ccoc2cc(O)ccc12 [7-Hydroxy-4H-chromen-4-one] (10 µM)
inactive: ABL1 = 0 | AKT1 = 0 | ALK 0 | ARAF 0 | AURKA 0 | AURKB 0 | AURKC 0 | BLK 0 | BMX 0 | BRAF 0

CC(=O)Nc1nc2ccc(-c3cnc(C)c(NC(=O)OC4CCCCC4)c3)cc2s1 (10 µM)
inactive: ABL1 = 0 | AKT1 = 0 | ALK 0 | ARAF 0 | AURKA 0 | AURKB 0 | AURKC 0 | BLK 0 | BMX 0 | BRAF 0

Cn1ncc(Cl)c1-c1cc(C(=O)N[C@H](CN)Cc2ccc(F)c(F)c2)sc1Cl (10 µM)
inactive: ABL1 = 0 | AKT1 = 0 | ALK 0 | ARAF 0 | AURKA 0 | AURKB 0 | AURKC 0 | BLK 0 | BMX 0 | BRAF 0

O=C(Nc1cccc(-c2nncn2C2CC2)c1)c1cc(-n2cnc(C3CC3)c2)ccn1 (10 µM)
inactive: ABL1 = 0 | AKT1 = 0 | ALK 0 | ARAF 0 | AURKA 0 | AURKB 0 | AURKC 0 | BLK 0 | BMX 0 | BRAF 0

COc1ccc2c(Oc3ccc(NC(=O)c4c(C)n(CC(C)(C)O)n(-c5ccccc5)c4=O)cc3F)ccnc2c1 (2.5 µM)
inactive: ABL1 = 0 | AKT1 = 0 | ALK 0 | ARAF 0 | AURKA 0 | AURKB 0 | AURKC 0 | BLK 0 | BMX 0 | BRAF 0

O=C(Nc1ccc(Cl)c(Cl)c1)Nc1ccc2nnsc2c1 (10 µM)
inactive: ABL1 = 0 | AKT1 = 0 | ALK 0 | ARAF 0 | AURKA 0 | AURKB 0 | AURKC 0 | BLK 0 | BMX 0 | BRAF 0

O=C(NOCCO)c1ccc2cncn2c1Nc1ccc(I)cc1F (10 µM)
inactive: ABL1 = 0 | AKT1 = 0 | ALK 0 | ARAF 0 | AURKA 0 | AURKB 0 | AURKC 0 | BLK 0 | BMX 0 | BRAF 0

COc1cc(N2CCC(N3CCN(C)CC3)CC2)ccc1Nc1nc2c(c(Nc3ccccc3S(=O)(=O)NC(C)C)n1)CCN2 [Conteltinib] (10 µM)
inactive: ABL1 = 0 | AKT1 = 0 | ALK 0 | ARAF 0 | AURKA 0 | AURKB 0 | AURKC 0 | BLK 0 | BMX 0 | BRAF 0

NC(=O)c1ccc(-c2cnn3ccc(NCc4cccnc4)nc23)cc1 (2.5 µM)
inactive: ABL1 = 0 | AKT1 = 0 | ALK 0 | ARAF 0 | AURKA 0 | AURKB 0 | AURKC 0 | BLK 0 | BMX 0 | BRAF 0

CC(C)c1ccc(CC(=O)N2CCN(c3ccc(C#N)nn3)CC2)cc1 (10 µM)
inactive: ABL1 = 0 | AKT1 = 0 | ALK 0 | ARAF 0 | AURKA 0 | AURKB 0 | AURKC 0 | BLK 0 | BMX 0 | BRAF 0

N#C/C(=C(/N)Sc1ccc(N)cc1)c1ccccc1C(F)(F)F (10 µM)
inactive: ABL1 = 0 | AKT1 = 0 | ALK 0 | ARAF 0 | AURKA 0 | AURKB 0 | AURKC 0 | BLK 0 | BMX 0 | BRAF 0

COc1ccc(CNc2nc(N(CCO)CCO)nc3c2ncn3C(C)C)cc1 (2.5 µM)
inactive: ABL1 = 0 | AKT1 = 0 | ALK 0 | ARAF 0 | AURKA 0 | AURKB 0 | AURKC 0 | BLK 0 | BMX 0 | BRAF 0

CC1=C(CC(=O)O)c2cc(F)ccc2/C1=C\c1ccc(C(C)C)cc1 (10 µM)
inactive: ABL1 = 0 | AKT1 = 0 | ALK 0 | ARAF 0 | AURKA 0 | AURKB 0 | AURKC 0 | BLK 0 | BMX 0 | BRAF 0

COc1cnccc1Nc1nc(-c2nn(Cc3c(F)cc(OCCO)cc3F)c3ccccc23)ncc1OC (10 µM)
inactive: ABL1 = 0 | AKT1 = 0 | ALK 0 | ARAF 0 | AURKA 0 | AURKB 0 | AURKC 0 | BLK 0 | BMX 0 | BRAF 0

Cc1cc2cc(Oc3ccnc(Nc4cccc(CS(=O)(=O)NCCN(C)C)c4)n3)ccc2[nH]1 [Sulfatinib] (10 µM)
inactive: ABL1 = 0 | AKT1 = 0 | ALK 0 | ARAF 0 | AURKA 0 | AURKB 0 | AURKC 0 | BLK 0 | BMX 0 | BRAF 0

COc1ccc(-n2c(C)c([N+](=O)[O-])c3ccc(O)cc32)cc1 (10 µM)
inactive: ABL1 = 0 | AKT1 = 0 | ALK 0 | ARAF 0 | AURKA 0 | AURKB 0 | AURKC 0 | BLK 0 | BMX 0 | BRAF 0

N#C/C(=C\c1ccc2oc(=O)[nH]c2c1)C(=O)c1ccc(O)c(O)c1 (10 µM)
inactive: ABL1 = 0 | AKT1 = 0 | ALK 0 | ARAF 0 | AURKA 0 | AURKB 0 | AURKC 0 | BLK 0 | BMX 0 | BRAF 0

O=C1NC(=O)C(=Cc2ccc3c(c2)OCO3)S1 (10 µM)
inactive: ABL1 = 0 | AKT1 = 0 | ALK 0 | ARAF 0 | AURKA 0 | AURKB 0 | AURKC 0 | BLK 0 | BMX 0 | BRAF 0

Cc1cccc(-c2[nH]ncc2-c2ccc3ncccc3n2)n1 (10 µM)
inactive: ABL1 = 0 | AKT1 = 0 | ALK 0 | ARAF 0 | AURKA 0 | AURKB 0 | AURKC 0 | BLK 0 | BMX 0 | BRAF 0

O=C(O)c1ccc(-c2c[nH]c3ncc(-c4ccccc4)cc23)cc1C1CCCC1 (2.5 µM)
inactive: ABL1 = 0 | AKT1 = 0 | ALK 0 | ARAF 0 | AURKA 0 | AURKB 0 | AURKC 0 | BLK 0 | BMX 0 | BRAF 0

CC(C)c1cc(/C=C(\C#N)C(N)=O)cc(C(C)C)c1O (10 µM)
inactive: ABL1 = 0 | AKT1 = 0 | ALK 0 | ARAF 0 | AURKA 0 | AURKB 0 | AURKC 0 | BLK 0 | BMX 0 | BRAF 0

COC1(C(=O)N[C@@H](C)c2ccc(-n3cc(F)cn3)nc2)CCC(c2nc(C)cc(Nc3cc(C)[nH]n3)n2)CC1 (stereo partly drawn) [trans-Pralsetinib] (2.5 µM)
inactive: ABL1 = 0 | AKT1 = 0 | ALK 0 | ARAF 0 | AURKA 0 | AURKB 0 | AURKC 0 | BLK 0 | BMX 0 | BRAF 0

CNC(=O)c1cc(Oc2ccc3nc(N[C@@H]4CCCC[C@H]4O)sc3c2)ccn1 (10 µM)
inactive: ABL1 = 0 | AKT1 = 0 | ALK 0 | ARAF 0 | AURKA 0 | AURKB 0 | AURKC 0 | BLK 0 | BMX 0 | BRAF 0

c1cc(-c2cnn3cc(-c4ccc(N5CCNCC5)cc4)cnc23)c2cccnc2c1 (2.5 µM)
inactive: ABL1 = 0 | AKT1 = 0 | ALK 0 | ARAF 0 | AURKA 0 | AURKB 0 | AURKC 0 | BLK 0 | BMX 0 | BRAF 0

Looked up by compound from the list above (two):
NC(=O)c1ccc(-c2cnn3ccc(NCc4cccnc4)nc23)cc1 (2.5 µM)
inactive: ABL1 = 0 | AKT1 = 0 | ALK 0 | ARAF 0 | AURKA 0 | AURKB 0 | AURKC 0 | BLK 0 | BMX 0 | BRAF 0

O=C(O)c1ccc(-c2c[nH]c3ncc(-c4ccccc4)cc23)cc1C1CCCC1 (2.5 µM)
inactive: ABL1 = 0 | AKT1 = 0 | ALK 0 | ARAF 0 | AURKA 0 | AURKB 0 | AURKC 0 | BLK 0 | BMX 0 | BRAF 0

Additional entries:

C=CC(=O)N1CCC[C@@H](n2nc(C(=O)Nc3ccc(CC(=O)N(C)C)c(C)c3C)c3c(N)ncnc32)C1 (10 µM)
inactive: ABL1 = 0 | AKT1 = 0 | ALK 0 | ARAF 0 | AURKA 0 | AURKB 0 | AURKC 0 | BLK 0 | BMX 0 | BRAF 0

O=C1NCCCc2c1oc1ccc(O)cc21 (10 µM)
inactive: ABL1 = 0 | AKT1 = 0 | ALK 0 | ARAF 0 | AURKA 0 | AURKB 0 | AURKC 0 | BLK 0 | BMX 0 | BRAF 0

C=C(F)C(=O)N1CCN(c2nc(OC[C@@H]3CCCN3C)nc3c2CCN(c2cccc4cccc(Cl)c24)C3)C[C@@H]1CC#N (2.5 µM)
inactive: ABL1 = 0 | AKT1 = 0 | ALK 0 | ARAF 0 | AURKA 0 | AURKB 0 | AURKC 0 | BLK 0 | BMX 0 | BRAF 0
